In PMC3562248 one finds binding data, which are given here for 1 molecule.

Results are given in words; binding and its absence hold for the method and conditions named. Binding seen in cells or lysates may run through a third protein. These calls come from enrichment with a bait or labelling near it, and not all partners need be listed. No binding means not detected with the bait.

The experiment addresses histone H3 N-terminal tail peptide (aa 1-21), unmodified, C-terminal biotin, P68431. The experiment is described as follows: affinity purification with mass spectrometry; biotinylated H3 1-21 peptide immobilised on streptavidin agarose beads, 2 mg HeLa nuclear extract, 3 h at 4°C, wash with 250 mM KCl; Coomassie-stained bands cut out and identified by mass spectrometry; only the target purified. The note with it: remark: other sources report otherwise.

B1: Sin3A (endogenous, HeLa), Q96ST3 1-1273 (protein)
chain: MKRRLDDQESPVYAAQQRRIPGSTEAFPHQHRVLAPAPPVYEAVSETMQSATGIQYSVTPSYQVSAMPQSSGSHGPAIAAVHSSHHHPTAVQPHGGQVVQSHAHPAPPVAPVQGQQQFQRLKVEDALSYLDQVKLQFGSQPQVYNDFLDIMKEFKSQSIDTPGVISRVSQLFKGHPDLIMGFNTFLPPGYKIEVQTNDMVNVTTPGQVHQIPTHGIQPQPQPPPQHPSQPSAQSAPAPAQPAPQPPPAKVSKPSQLQAHTPASQQTPPLPPYASPRSPPVQPHTPVTISLGTAPSLQNNQPVEFNHAINYVNKIKNRFQGQPDIYKAFLEILHTYQKEQRNAKEAGGNYTPALTEQEVYAQVARLFKNQEDLLSEFGQFLPDANSSVLLSKTTAEKVDSVRNDHGGTVKKPQLNNKPQRPSQNGCQIRRHPTGTTPPVKKKPKLLNLKDSSMADASKHGGGTESLFFDKVRKALRSAEAYENFLRCLVIFNQEVISRAELVQLVSPFLGKFPELFNWFKNFLGYKESVHLETYPKERATEGIAMEIDYASCKRLGSSYRALPKSYQQPKCTGRTPLCKEVLNDTWVSFPSWSEDSTFVSSKKTQYEEHIYRCEDERFELDVVLETNLATIRVLEAIQKKLSRLSAEEQAKFRLDNTLGGTSEVIHRKALQRIYADKAADIIDGLRKNPSIAVPIVLKRLKMKEEEWREAQRGFNKVWREQNEKYYLKSLDHQGINFKQNDTKVLRSKSLLNEIESIYDERQEQATEENAGVPVGPHLSLAYEDKQILEDAAALIIHHVKRQTGIQKEDKYKIKQIMHHFIPDLLFAQRGDLSDVEEEEEEEMDVDEATGAVKKHNGVGGSPPKSKLLFSNTAAQKLRGMDEVYNLFYVNNNWYIFMRLHQILCLRLLRICSQAERQIEEENREREWEREVLGIKRDKSDSPAIQLRLKEPMDVDVEDYYPAFLDMVRSLLDGNIDSSQYEDSLREMFTIHAYIAFTMDKLIQSIVRQLQHIVSDEICVQVTDLYLAENNNGATGGQLNTQNSRSLLESTYQRKAEQLMSDENCFKLMFIQSQGQVQLTIELLDTEEENSDDPVEAERWSDYVERYMNSDTTSPELREHLAQKPVFLPRNLRRIRKCQRGREQQEKEGKEGNSKKTMENVDSLDKLECRFKLNSYKMVYVIKSEDYMYRRTALLRAHQSHERVSKRLHQRFQAWVDKWTKEHVPREMAAETSKWLMGEGLEGLVPCTTTCDTETLHFVSINKYRVKYGTVFKAP
modifications: here or on the partner: C-terminal biotin
Take B1: the binding entry is “no binding”.
